Assay results as given in patent publication US12240871 (dated 2025).

Assay: general procedure: solution-phase peptide synthesis; 2,2-dimethylbutanoyl chloride / triethylamine (mixed anhydride); N,O-bis(trimeth)
Conditions: coupling step

Q: With Boc-F[NMeF][NMeA]Y-OH as the substance, how does the step yield read?
A: 93%

Q: For Boc-F[NMeF][NMeF]F-OH, which step yield is on record?
A: 92%

Q: Which step yield does the source give for Boc-Y[NMeF][NMeF]P-OH here?
A: 99%

Q: Which step yield does the source give for Boc-[NMeF]F[NMeF][NMeA]Y-OH here?
A: 87%

Q: Which step yield does the source give for Boc-[NMeF][NMeF][NMeA]Y-OH here?
A: 85%

Q: Which step yield does the source give for Fmoc-E(OtBu)[NMeF][NMeF][NMeA]Y-OH here?
A: 90%

Q: For Fmoc-W(Boc)[NMeF][NMeA]F-OH, which step yield is on record?
A: 86%

Q: For Fmoc-[Gln(Trt)][NMeF][NMeA]Y-OH, which step yield is on record?
A: 62%

Same assay, conditions: late stage modification step

Q: With H-F[NMeF][NMeA]Y-OH as the substance, how does the step yield read?
A: 99%

Non-standard residues stand in square brackets, D forms with d. *: point of attachment. Gln(Trt) = N[C@@H](CCC(=O)NC(c1ccccc1)(c1ccccc1)c1ccccc1)C(=O)O; Fmoc = O=C(OCC1c2ccccc2-c2ccccc21)*; NMeF = CN[C@@H](Cc1ccccc1)C(=O)O; NMeA = CN[C@@H](C)C(=O)O; Boc = CC(C)(C)OC(=O)*; OtBu = CC(C)(C)O*
